Assay results from patent publication US11058718B2, “Method for treating non-alcoholic steatohepatitis (NASH) with the combination of polaprezinc and sodium selenite” (Medico Consl Co., Ltd., priority 2019, dated 2021).
Entries after “also recorded” stand apart in the source; their conditions may differ. At least one structure is not confirmed: it was looked up by name or label, or the drawing left a doubt.

What was measured:
hepatic fibrosis = conditions: from patent literature 1, nonpatent literature 3 and 5; cited from earlier work
[1] = system: NASH model mice (STAM mouse); assay: NASH model (STAM) mice, oral administration once a day for 28 days; liver tissue images, liver weight, serum and hepatic markers, NAS; format: in vivo
Description: An internationally prized and recognized STAM (registered trademark) mouse was used for the research model of non-alcoholic fatty liver disease (NAFLD) and/or non-alcoholic steatohepatitis (NASH). A STAM (registered trademark) mouse is an animal model of non-alcoholic steatohepatitis prepared by administrating inflammation inducer of the pancreas (patent literature 2) which Stelic Institute & Co. developed and is publically informed as patentee, and many research reports using this animal model has already been made domestic and overseas. […]
Blood was collected from the heart under ether anesthesia at the end of administration. […] For all necropsied animals, treatment was made to divide the liver into four respective lobes (right/left medial lobe, left lateral lobe, right lobe, caudate lobe), wherein especially the left lateral lobe was treated for three parts taking two each of its six equally divided parts, and the tissue image was analyzed.
The evaluation for non-alcoholic fatty liver disease (NAFLD) and/or non-alcoholic steatohepatitis (NASH) improvement was evaluated by the following items.
NAS (NAFLD activity score) is used to evaluate non-alcoholic fatty liver disease (NAFLD). […] The activity of NAS is evaluated by putting the three of steatosis, lobular inflammation, and Ballooning degeneration into scores. […]

Structure (SMILES): O=[Se](O)O [selenium preparation (sodium selenite), sodium selenite]
- suppression of hepatic fibrosis (prior reports) (hepatic fibrosis): suppress hepatic fibrosis
- F4/80 (macrophage) antigen expression level in stained liver tissue ([1]; oral 28 days (FIG. 2-1, 2-2)): suppresses the expression level significantly compared with the control
- NAS (NAFLD activity score) improvement, in words ([1]; oral 28 days, comparison between groups): significantly declined NAS (NAFLD activity score) compared with the control group; also recorded: showed improvement compared to the control group
